# Results as given in the supplement of paper PMC8616043.
# Structures can show the parent of a compound that is named as a salt. This is one part of the list. This data set is noisy: repeats of one test often differ as much as different tests do.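 PR50, a 50-repeat proline–arginine dipeptide protein from C9ORF72 (ALS/FTD), was expressed by transfection in U-2 OS human cells stably carrying a GFP sensor with import and classical export signals. Per-well nuclear-minus-cytoplasm GFP, normalized between in-plate DMSO (low) and PR-only (high), was scored versus other test wells; compounds well below zero were hits reversing PR.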
# Tested on: U-2 OS NCT-C biosensor cells expressing PR50
# Test: Z-score of normalised NCT-C biosensor translocation index in PR50-expressing cells; higher = more nuclear biosensor (more disrupted nuclear export)
# Settings: 3 µM; 24 h
row,Structure (SMILES),Z-score
1,Cc1cc(CN)cc(C)c1NC(=O)c1ccc(-c2cc(Cl)ccc2Cl)o1,inactive: 2.06
2,CCCCCCCC/C=C\CCCCCCCC(=O)O [Oleic Acid],inactive: 0.0481
3,O=C(O[C@@H]1C[C@@H]2C[C@H]3C[C@H](C1)N2CC3=O)c1c[nH]c2ccccc12 [Dolasetron mesylate hydrate],inactive: -0.83
4,O=C(O[C@@H]1C[C@@H]2C[C@H]3C[C@H](C1)N2CC3=O)c1c[nH]c2ccccc12 [Dolasetron],inactive: 0.151
5,CC(C)(C)NC(=O)[C@@H]1CN(Cc2cccnc2)CCN1C[C@@H](O)C[C@@H](Cc1ccccc1)C(=O)N[C@H]1c2ccccc2C[C@H]1O [Indinavir sulfate salt hydrate],inactive: -0.0338
6,CC(C)(C)NC(=O)[C@@H]1CN(Cc2cccnc2)CCN1C[C@@H](O)C[C@@H](Cc1ccccc1)C(=O)N[C@H]1c2ccccc2C[C@H]1O [Indinavir],inactive: 0.00351
7,COc1ccc2cc1Oc1ccc(cc1)C[C@H]1c3c(cc4c(c3Oc3cc5c(cc3OC)CCN(C)[C@@H]5C2)OCO4)CCN1C [Cepharanthine],inactive: -0.798
8,CC(=O)O[C@H]1Cc2ccccc2N(C(N)=O)c2ccccc21,inactive: -1.66
9,COc1ccc(-c2coc3cc(O)cc(O)c3c2=O)cc1 [Biochanin A],inactive: -0.27
10,CC(C)(C)c1cc(/C=C(\C#N)C(N)=S)cc(C(C)(C)C)c1O [Tyrphostin AG 879],inactive: -1.21
11,COC1=CC(=O)C[C@@H](C)[C@]12Oc1c(Cl)c(OC)cc(OC)c1C2=O [(+)-Griseofulvin],inactive: 0.0504
12,COC1=CC(=O)C[C@@H](C)[C@]12Oc1c(Cl)c(OC)cc(OC)c1C2=O [Griseofulvin],inactive: 1.32
13,CCC(=O)NCC[C@@H]1CCc2ccc3c(c21)CCO3 [Ramelteon],inactive: -0.68
14,C[C@H](O)C(=O)C1=Nc2c(nc(N)[nH]c2=O)NC1 [Sepiapterin],inactive: 0.295
15,CN(C)CCC(c1ccc(Cl)cc1)c1ccccn1 (stereo not given) [Chlorpheniramine Maleate],inactive: 1.26
16,CN1Cc2sccc2C(c2ccc(O)c(O)c2)C1 (stereo not given),inactive: 1.01
17,Cc1onc(-c2ccccc2)c1C(=O)N[C@@H]1C(=O)N2[C@@H]1SC(C)(C)[C@@H]2C(=O)O [Oxacillin sodium salt monohydrate],inactive: 0.235
18,CC(=O)C1=C(C)N(c2cccc(C(F)(F)F)c2)C(=O)N[C@@H]1c1ccc(C#N)nc1,inactive: -0.246
19,CCCC(CCC)C(=O)O [Valproic acid sodium],inactive: 1.53
20,CCCC(CCC)C(=O)O [Valproic acid],active: -2.38
21,CN(C)CCCC1(c2ccc(F)cc2)OCc2cc(C#N)ccc21 (stereo not given) [Citalopram hydrobromide],inactive: -0.583
22,Nn1nnc2ccccc21 [1-Aminobenzo triazole],inactive: -0.376
23,COc1cc2c[n+](C)c3c4cc5c(cc4ccc3c2cc1OC)OCO5 [Nitidine chloride],inactive: -1

# 2 entries picked at random from the list so far, as already listed:
row,Structure (SMILES),Z-score
8,CC(=O)O[C@H]1Cc2ccccc2N(C(N)=O)c2ccccc21,inactive: -1.66
6,CC(C)(C)NC(=O)[C@@H]1CN(Cc2cccnc2)CCN1C[C@@H](O)C[C@@H](Cc1ccccc1)C(=O)N[C@H]1c2ccccc2C[C@H]1O [Indinavir],inactive: 0.00351

# Further records follow:

row,Structure (SMILES),Z-score
1,COc1ccccc1CNCCCCCCNCCCCCCCCNCCCCCCNCc1ccccc1OC [Methoctramine tetrahydrochloride],inactive: -0.335
2,CCOC(=O)C1=CN(Cc2ccccc2)C=C(C(=O)OCC)C1c1ccccc1,inactive: 0.795
3,Nc1nc(/C(=C/CC(=O)O)C(=O)N[C@@H]2C(=O)N3C(C(=O)O)=CCS[C@H]23)cs1 [Ceftibuten],inactive: 0.157
4,CCC(=O)O[C@]1(C(=O)SCF)[C@H](C)C[C@H]2[C@@H]3C[C@H](F)C4=CC(=O)C=C[C@]4(C)[C@@]3(F)[C@@H](O)C[C@@]21C [Fluticasone Propionate],inactive: 0.0945
5,CN1CCC(=C2c3ccccc3CCn3c(C=O)cnc32)CC1 [Alcaftadine],inactive: 0.864
6,NS(=O)(=O)c1nn2cc(-c3ccccc3)nc2s1,inactive: 2.48
7,CN(C)CCOC(=O)C(c1ccccc1)C1(O)CCCC1 (stereo not given) [Cyclopentolate],inactive: -0.122
8,CC1=CC(=O)C2=C(C)CC[C@@H]3[C@H](OC(=O)[C@H]3C)[C@@H]12 [Leucomisine],inactive: 0.431
9,O=C1O[C@H]([C@@H](O)CO)C(O)=C1O [L-Ascorbic Acid],inactive: -0.618
10,Clc1ccc(C(c2ccccc2Cl)C(Cl)Cl)cc1 (stereo not given) [Mitotane],inactive: -0.341
11,Cc1cccc(C)c1OCC(=O)N[C@@H](Cc1ccccc1)[C@@H](O)C[C@H](Cc1ccccc1)NC(=O)[C@H](C(C)C)N1CCCNC1=O [Lopinavir],inactive: -0.571
12,O=C1Nc2ccc(Cl)cc2[C@@](C#CC2CC2)(C(F)(F)F)O1 [Efavirenz],inactive: 0.17
13,Nc1ccc(C(=O)O)c(O)c1 [4-Aminosalicylic Acid],inactive: 0.488
14,CC(=O)Oc1ccc(C(c2ccc(OC(C)=O)cc2)c2ccccn2)cc1 [Bisacodyl],inactive: 0.435
15,COc1cccc(OC)c1OCCNCC1CSc2ccccc2O1 (stereo not given) [Benoxathian hydrochloride],inactive: 4.25
16,Cc1ccc(C(=O)c2cc(/C=C/C(=O)NO)n(C)c2)cc1,active: -2.27
17,CCCCS(=N)(=O)CCC(N)C(=O)O [L-Buthionine- sulfoximine],inactive: 4.53
18,COc1cc(O)c(C(=O)/C=C/c2ccccc2)c(OC)c1 [Flavokawain B],inactive: 0.325
19,CCCc1nn(C)c2c(=O)[nH]c(-c3cc(S(=O)(=O)N4CCN(C)CC4)ccc3OCC)nc12 [Sildenafil Citrate],inactive: -0.106
20,COc1cc(CNC(=O)CCCCCCC(C)C)ccc1O [Dihydrocapsaicin],inactive: -0.542
21,CC(NCCc1ccc(O)cc1)C(O)c1ccc(O)cc1 (stereo not given) [Ritodrine hydrochloride],inactive: 0.493
22,Cc1nc2c([nH]1)c(=O)n(C)c(=O)n2Cc1ccco1 [Furafylline],inactive: 0.193
